Results on 1 molecule are retold here after publication PMC11430333.

Results are given in words; binding and its absence hold for the method and conditions named. In cells and extracts the contact can be indirect. For some of these results: Binding calls can cover weak binding; strength is not graded here. Sequences can lack the tags named with a protein.

Holding throughout (assay): co-IP; HEK-293T cells co-transfected for 24 h with Flag-RSAD2 and GFP-tagged viral proteins or 2C segments, NP40 lysis buffer, five washes; the precipitating antibody is not named for these panels (Figures 3B, 4B, 4C)
Assay [1] concerns the target GFP-3D (Senecavirus A 3D protein) (Senecavirus A).
Assay [2] concerns the target GFP-L (Senecavirus A L protein) (Senecavirus A).
Assay [3] addresses GFP-2C (aa 201-322) (Senecavirus A).
Assay [4] has as its target GFP-2C (aa 101-322) (Senecavirus A).

B1: Flag-RSAD2 (porcine radical S-adenosyl methionine domain-containing 2) (protein, UniProt Q9MZU4 1-362)
chain: MWTLVPVTFALRLLSTFVQPLGSLGSSLGPLFLWLWAAFWRAGGDRSRQQLQGKTEAGEPPRAQEDSHLPTTPTSVNYHFTRQCNYKCGFCFHTAKTSFVLPLEEAKRGLWLLKEAGMEKINFSGGEPFIHDRGEYLGKLVRFCKEELQLPSVSIVSNGSLIWERWFKSYGEYLDILAISCDSFDEQVNVLIGRGQGKKNHVENLQKLRTWCRDYKVAFKINSVINRFNVEEDMTEHIKALNPVRWKVFQCLLIEGENVGEDALREAEQFVISDEEFEEFLDRHKDVSCLVPESNRQMRDSYLILDEYMRFLNCRNGRKDPSKSILDVGVEKAIKFSGFDEKMFLKRGGKYVWSKADLKLDW
Regarding B1, the binding result in assay [1] is given as “no binding”; in assay [2] it was “binds weakly”; in assay [3], “binds”; in assay [4], “binds”.
